Results as given in patent US12293809B2, “Workflow for generating compounds with biological activity against a specific biological target” (INSILICO MEDICINE IP LIMITED, priority 2019, dated 2025).
Read-outs that look alike come from different tables or passages of the source.

What was measured:
in vitro = settings: microsomes; for Remaining (*NCF = 60 min) / Remaining (T = 60 min): 1 h
Procedure: (§1) Cold acetonitrile (ACN) including 100 ng/mL Tolbutamide and 100 ng/mL Labetalol as internal standard (IS) were used for stop solution. 10 μL compound or control working solution/well was added to all plates (T0, T5, T10, T20, T30, T60, NCF60) except matrix blank. Dispense 80 μL/well microsome solution was added to every plate by Apricot, the mixture of microsome solution and compound were incubated at 37° C. for about 10 min. After pre-warming, dispense 10 μL/well NADPH regenerating system was added to every plate by Apricot to start reaction. The solution was then incubated at 37° C. 300 (μL/well) stop solution (cold in 4° C.) was added to terminate the reaction. The sampling plates were shaken for approximately 10 min. Samples were centrifuged at 4000 rpm for 20 min under 4° C. While centrifuging, 8×new 96-well plate were loaded with 300 μL HPLC water, then 100 μL supernatant was transferred and mixed for LC/MS/MS.

[1] = microsomes, 1 h
Procedure: as §1

## CCCNCC(O)COc1ccccc1C(=O)CCc1ccccc1 (stereo not drawn) [Propafenone, propafenone]
In vitro; CD-1, mouse
  CLint scaled: 1870 mL/min/kg
  Remaining (*NCF = 60 min): 88.0%
  Remaining (T = 60 min): 0.4%
In vitro; SD, rat
  CLint scaled: 1610 mL/min/kg
  Remaining (*NCF = 60 min): 87.1%
  Remaining (T = 60 min): 0.4%
[1]; Beagle, dog
  Remaining (*NCF = 60 min): 101.6%
[1]; human
  Remaining (*NCF = 60 min): 103.3%
  Remaining (T = 60 min): 0.7%
